Test results reported in the supplement of paper PMC10849652.
Some of the results follow.

Protein sequences, listed by entry. Tags and fused reporters are not part of them. Lines headed by an entry give the natural chain unless they say otherwise; changes in a name come on top.
UniProt Q9Y2H0: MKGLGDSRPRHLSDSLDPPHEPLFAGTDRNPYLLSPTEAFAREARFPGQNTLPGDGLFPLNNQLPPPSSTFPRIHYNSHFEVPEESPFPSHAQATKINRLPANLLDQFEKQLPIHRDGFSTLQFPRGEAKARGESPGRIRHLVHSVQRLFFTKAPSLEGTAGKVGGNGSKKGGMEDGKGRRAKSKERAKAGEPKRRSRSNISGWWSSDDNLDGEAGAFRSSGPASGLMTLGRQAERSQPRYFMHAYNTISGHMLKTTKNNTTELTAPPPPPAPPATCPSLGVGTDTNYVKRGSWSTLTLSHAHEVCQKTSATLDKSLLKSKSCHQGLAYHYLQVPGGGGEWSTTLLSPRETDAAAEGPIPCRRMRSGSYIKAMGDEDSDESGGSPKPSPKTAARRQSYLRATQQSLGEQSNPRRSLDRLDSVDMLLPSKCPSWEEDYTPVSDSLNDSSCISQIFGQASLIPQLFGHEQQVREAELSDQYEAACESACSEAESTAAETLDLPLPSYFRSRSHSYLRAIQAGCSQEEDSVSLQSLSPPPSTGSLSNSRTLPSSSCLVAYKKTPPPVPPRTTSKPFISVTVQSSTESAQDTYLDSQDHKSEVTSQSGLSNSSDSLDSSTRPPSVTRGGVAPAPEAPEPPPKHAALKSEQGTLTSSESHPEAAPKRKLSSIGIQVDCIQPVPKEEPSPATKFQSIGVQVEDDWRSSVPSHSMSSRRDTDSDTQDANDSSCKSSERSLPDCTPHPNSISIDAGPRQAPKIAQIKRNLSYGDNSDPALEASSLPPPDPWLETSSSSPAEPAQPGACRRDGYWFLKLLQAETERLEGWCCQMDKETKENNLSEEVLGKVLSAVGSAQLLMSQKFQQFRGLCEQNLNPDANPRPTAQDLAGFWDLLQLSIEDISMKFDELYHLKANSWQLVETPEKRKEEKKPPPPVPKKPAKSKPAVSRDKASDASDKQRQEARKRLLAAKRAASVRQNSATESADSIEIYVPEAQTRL
UniProt Q96LJ7: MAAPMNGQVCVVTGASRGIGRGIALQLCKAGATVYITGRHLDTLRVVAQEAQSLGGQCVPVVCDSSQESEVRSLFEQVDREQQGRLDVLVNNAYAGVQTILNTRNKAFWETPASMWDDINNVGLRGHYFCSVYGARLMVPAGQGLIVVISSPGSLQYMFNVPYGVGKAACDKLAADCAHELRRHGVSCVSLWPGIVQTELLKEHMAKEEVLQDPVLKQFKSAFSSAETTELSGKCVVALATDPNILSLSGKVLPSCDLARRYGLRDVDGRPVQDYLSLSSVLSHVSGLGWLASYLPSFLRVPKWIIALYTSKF
UniProt Q96JB1: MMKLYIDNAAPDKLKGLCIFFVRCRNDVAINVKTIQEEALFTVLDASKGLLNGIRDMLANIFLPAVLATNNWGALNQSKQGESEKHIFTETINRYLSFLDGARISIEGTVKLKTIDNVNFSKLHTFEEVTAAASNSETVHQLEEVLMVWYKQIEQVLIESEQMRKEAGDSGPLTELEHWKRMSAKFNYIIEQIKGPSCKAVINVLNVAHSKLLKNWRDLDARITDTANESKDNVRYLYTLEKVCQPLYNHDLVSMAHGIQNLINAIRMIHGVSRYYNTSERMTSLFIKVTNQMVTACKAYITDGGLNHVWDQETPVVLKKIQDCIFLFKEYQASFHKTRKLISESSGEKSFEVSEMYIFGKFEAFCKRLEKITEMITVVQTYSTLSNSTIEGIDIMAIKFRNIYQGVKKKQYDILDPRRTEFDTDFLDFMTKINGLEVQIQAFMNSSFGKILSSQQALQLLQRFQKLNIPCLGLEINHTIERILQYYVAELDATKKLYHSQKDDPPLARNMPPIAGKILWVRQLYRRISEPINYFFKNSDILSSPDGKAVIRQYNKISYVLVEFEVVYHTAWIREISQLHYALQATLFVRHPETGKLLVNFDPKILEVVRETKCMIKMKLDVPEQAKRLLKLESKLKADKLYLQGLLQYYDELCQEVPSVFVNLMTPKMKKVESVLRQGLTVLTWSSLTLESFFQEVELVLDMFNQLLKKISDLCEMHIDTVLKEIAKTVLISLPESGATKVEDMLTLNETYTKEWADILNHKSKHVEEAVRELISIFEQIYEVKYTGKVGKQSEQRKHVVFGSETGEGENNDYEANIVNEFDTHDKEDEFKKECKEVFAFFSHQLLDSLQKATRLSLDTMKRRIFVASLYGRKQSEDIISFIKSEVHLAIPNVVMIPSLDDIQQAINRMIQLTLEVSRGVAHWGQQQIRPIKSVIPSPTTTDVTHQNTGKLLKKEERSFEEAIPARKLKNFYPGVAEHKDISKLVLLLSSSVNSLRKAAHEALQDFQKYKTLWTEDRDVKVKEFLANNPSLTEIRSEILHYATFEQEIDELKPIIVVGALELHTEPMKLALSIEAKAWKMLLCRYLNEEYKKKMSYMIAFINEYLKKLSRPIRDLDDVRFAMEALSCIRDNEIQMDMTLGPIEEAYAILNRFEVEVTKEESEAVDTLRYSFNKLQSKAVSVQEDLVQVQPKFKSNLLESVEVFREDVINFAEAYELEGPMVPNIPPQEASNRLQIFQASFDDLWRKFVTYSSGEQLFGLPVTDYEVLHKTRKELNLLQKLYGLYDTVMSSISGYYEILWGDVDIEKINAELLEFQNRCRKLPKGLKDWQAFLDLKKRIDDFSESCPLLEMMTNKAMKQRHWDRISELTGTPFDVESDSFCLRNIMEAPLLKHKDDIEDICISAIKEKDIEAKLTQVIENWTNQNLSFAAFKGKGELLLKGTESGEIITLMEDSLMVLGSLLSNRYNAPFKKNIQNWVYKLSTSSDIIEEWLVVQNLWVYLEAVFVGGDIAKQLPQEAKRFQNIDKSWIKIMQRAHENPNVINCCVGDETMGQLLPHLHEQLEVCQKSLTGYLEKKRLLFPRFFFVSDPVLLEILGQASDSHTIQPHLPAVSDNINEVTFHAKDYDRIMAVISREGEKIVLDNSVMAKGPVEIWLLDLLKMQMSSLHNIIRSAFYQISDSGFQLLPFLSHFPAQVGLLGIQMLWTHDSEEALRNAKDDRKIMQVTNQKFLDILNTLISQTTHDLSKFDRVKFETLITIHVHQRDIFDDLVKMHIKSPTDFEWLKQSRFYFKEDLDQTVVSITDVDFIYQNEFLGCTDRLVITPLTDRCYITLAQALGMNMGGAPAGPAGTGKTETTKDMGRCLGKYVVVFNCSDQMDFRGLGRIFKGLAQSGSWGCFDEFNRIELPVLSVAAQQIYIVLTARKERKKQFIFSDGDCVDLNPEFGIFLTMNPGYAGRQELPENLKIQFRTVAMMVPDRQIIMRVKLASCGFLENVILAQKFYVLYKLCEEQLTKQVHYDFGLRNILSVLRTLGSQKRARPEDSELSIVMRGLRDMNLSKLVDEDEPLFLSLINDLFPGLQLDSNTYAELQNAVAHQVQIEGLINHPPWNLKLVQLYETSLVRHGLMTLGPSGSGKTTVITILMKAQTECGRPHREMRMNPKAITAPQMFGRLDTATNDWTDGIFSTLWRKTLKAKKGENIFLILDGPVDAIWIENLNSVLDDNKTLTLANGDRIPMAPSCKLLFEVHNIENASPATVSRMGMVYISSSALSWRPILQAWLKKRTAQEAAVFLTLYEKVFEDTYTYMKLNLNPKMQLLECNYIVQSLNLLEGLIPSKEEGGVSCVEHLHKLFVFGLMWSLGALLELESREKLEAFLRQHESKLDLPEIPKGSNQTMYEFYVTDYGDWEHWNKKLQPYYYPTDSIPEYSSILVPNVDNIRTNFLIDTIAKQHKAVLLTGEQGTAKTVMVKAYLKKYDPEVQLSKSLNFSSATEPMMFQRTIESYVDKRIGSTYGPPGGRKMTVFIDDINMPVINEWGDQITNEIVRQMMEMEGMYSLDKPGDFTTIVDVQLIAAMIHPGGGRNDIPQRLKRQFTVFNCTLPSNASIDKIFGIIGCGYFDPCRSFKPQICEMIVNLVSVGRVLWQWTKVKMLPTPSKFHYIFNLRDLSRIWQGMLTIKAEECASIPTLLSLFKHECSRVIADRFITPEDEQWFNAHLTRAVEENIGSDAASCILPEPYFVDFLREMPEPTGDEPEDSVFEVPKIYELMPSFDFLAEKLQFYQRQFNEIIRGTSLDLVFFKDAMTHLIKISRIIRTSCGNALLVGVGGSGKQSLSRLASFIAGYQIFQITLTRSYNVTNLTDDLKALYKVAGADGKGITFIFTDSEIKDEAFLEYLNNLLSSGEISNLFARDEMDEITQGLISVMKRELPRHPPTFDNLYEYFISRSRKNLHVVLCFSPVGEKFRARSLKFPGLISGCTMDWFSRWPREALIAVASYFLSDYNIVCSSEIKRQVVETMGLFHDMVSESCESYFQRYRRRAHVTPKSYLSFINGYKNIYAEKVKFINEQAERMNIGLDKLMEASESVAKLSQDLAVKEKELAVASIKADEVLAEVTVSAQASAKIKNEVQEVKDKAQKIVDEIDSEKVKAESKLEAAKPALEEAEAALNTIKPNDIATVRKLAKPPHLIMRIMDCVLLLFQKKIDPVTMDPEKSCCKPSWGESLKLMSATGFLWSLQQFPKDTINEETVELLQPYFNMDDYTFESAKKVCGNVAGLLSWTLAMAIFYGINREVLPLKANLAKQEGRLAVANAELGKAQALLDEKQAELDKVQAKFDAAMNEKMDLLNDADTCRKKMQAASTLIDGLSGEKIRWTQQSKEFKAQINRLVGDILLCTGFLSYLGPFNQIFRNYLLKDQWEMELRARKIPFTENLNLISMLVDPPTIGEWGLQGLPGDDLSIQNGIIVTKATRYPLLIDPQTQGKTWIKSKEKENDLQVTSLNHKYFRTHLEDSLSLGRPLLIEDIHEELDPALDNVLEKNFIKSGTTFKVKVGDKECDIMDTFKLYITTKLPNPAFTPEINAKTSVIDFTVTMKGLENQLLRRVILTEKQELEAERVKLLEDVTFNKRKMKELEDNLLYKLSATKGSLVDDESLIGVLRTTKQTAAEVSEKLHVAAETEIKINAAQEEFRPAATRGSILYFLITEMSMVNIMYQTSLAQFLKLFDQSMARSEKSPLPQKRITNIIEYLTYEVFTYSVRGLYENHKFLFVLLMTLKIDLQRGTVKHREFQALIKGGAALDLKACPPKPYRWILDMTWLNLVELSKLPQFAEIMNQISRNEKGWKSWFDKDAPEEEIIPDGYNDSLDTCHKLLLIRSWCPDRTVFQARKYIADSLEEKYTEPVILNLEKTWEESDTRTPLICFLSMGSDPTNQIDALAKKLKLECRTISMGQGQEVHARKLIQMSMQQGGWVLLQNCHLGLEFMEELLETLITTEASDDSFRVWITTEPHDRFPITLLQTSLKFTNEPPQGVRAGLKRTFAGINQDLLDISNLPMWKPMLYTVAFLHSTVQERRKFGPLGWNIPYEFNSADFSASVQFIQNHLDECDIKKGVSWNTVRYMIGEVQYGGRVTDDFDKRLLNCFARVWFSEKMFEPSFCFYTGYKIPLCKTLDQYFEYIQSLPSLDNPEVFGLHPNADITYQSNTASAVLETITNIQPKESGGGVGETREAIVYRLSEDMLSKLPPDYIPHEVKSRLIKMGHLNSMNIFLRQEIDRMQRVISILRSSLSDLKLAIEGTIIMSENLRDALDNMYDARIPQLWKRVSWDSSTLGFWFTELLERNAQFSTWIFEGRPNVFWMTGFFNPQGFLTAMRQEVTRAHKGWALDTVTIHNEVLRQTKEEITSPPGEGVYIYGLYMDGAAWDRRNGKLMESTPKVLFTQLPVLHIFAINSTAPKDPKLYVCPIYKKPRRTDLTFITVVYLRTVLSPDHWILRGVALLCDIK
UniProt Q9H5Z1: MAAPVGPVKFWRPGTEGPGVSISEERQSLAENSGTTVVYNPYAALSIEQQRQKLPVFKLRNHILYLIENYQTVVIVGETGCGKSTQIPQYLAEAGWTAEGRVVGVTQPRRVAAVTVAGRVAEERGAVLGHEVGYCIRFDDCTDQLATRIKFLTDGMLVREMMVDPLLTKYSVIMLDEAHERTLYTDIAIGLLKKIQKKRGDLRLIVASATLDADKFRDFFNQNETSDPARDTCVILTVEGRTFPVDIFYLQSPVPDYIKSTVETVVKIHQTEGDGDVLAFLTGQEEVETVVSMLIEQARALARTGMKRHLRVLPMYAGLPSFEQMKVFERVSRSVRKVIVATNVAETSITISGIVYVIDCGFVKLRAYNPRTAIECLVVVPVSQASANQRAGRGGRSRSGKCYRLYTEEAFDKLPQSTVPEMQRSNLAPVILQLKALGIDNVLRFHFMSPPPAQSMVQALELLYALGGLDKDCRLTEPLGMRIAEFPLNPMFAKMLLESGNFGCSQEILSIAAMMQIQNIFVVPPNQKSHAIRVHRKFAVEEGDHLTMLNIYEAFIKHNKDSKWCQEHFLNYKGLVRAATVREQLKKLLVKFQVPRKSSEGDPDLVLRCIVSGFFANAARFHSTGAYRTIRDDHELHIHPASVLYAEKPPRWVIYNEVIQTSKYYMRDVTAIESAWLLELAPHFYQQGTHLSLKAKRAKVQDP

Assays:
Experiment in all cases: log2 fold change, soluble protein after heating vs DMSO (PISA); higher = thermal stabilisation; K562 lysate, 10 uM; active = over 0.2 and 3.5 SD of the protein, either way, in both replicates (recomputed)
lapatinib = compound: CS(=O)(=O)CCNCc1ccc(-c2ccc3ncnc(Nc4ccc(OCc5cccc(F)c5)c(Cl)c4)c3c2)o1 [lapatinib]
Outline: (§1)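 K562 pellets were dounce-homogenised in PBS pH 7.4 with 1 mM MgCl2, and the crude extract at 1 mg/mL protein was treated with 10 μM compound for 30 min. Aliquots were heated for 3 min across 48°C-58°C, pooled, and brought to 0.5% NP-40 at 4°C; soluble protein was the supernatant after 21,000xg for 90 min. Soluble protein was quantified by TMTpro 16plex LC-MS/MS with channel sums equalised, and reported as log2 fold change in thermal stability against DMSO controls, with values from duplicates.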

pictilisib = compound: CS(=O)(=O)N1CCN(Cc2cc3nc(-c4cccc5[nH]ncc45)nc(N4CCOCC4)c3s2)CC1 [pictilisib]
Outline: as §1

crizotinib = compound: C[C@@H](Oc1cc(-c2cnn(C3CCNCC3)c2)cnc1N)c1c(Cl)ccc(F)c1Cl [crizotinib]
Outline: as §1

[1] = compound: C[C@H](C1=CC=C(C=C1)C(=O)NC2=C3C=CNC3=NC=C2)N
Outline: as §1

duvelisib = compound: C[C@H](Nc1ncnc2nc[nH]c12)c1cc2cccc(Cl)c2c(=O)n1-c1ccccc1 [duvelisib]
Outline: as §1

gandotinib = compound: Cc1cc(Nc2cc(CN3CCOCC3)c3nc(C)c(Cc4ccc(Cl)cc4F)n3n2)n[nH]1 [gandotinib]
Outline: as §1

tozasertib = compound: Cc1cc(Nc2cc(N3CCN(C)CC3)nc(Sc3ccc(NC(=O)C4CC4)cc3)n2)n[nH]1 [tozasertib]
Outline: as §1

doramapimod = compound: Cc1ccc(-n2nc(C(C)(C)C)cc2NC(=O)Nc2ccc(OCCN3CCOCC3)c3ccccc23)cc1 [doramapimod]
Outline: as §1

bafetinib = compound: Cc1ccc(NC(=O)c2ccc(CN3CC[C@H](N(C)C)C3)c(C(F)(F)F)c2)cc1Nc1nccc(-c2cncnc2)n1 [bafetinib]
Outline: as §1

[2] = compound: Cc1cccc(CC(=O)N2CCc3c2ccc(-c2cn(C)c4ncnc(N)c24)c3F)n1
Outline: as §1

nilotinib = compound: Cc1cn(-c2cc(NC(=O)c3ccc(C)c(Nc4nccc(-c5cccnc5)n4)c3)cc(C(F)(F)F)c2)cn1 [nilotinib]
Outline: as §1

[3] = compound: Cc1nc(Nc2n[nH]c3c2CN(C(=O)N[C@H](CN(C)C)c2ccccc2)C3(C)C)c2sccc2n1
Outline: as §1

dasatinib = compound: Cc1nc(Nc2ncc(C(=O)Nc3c(C)cccc3Cl)s2)cc(N2CCN(CCO)CC2)n1 [dasatinib]
Outline: as §1

[4] = compound: Cc1ncc(-c2ccnc(Nc3ccc(S(C)(=O)=O)cc3)n2)n1C(C)C
Outline: as §1

[5] = compound: Cn1cc(-c2ccc3c(c2)CCN3C(=O)Cc2cccc(C(F)(F)F)c2)c2c(N)ncnc21
Outline: as §1

quisinostat = compound: Cn1cc(CNCC2CCN(c3ncc(C(=O)NO)cn3)CC2)c2ccccc21 [quisinostat]
Outline: as §1

tipifarnib = compound: Cn1cncc1[C@@](N)(c1ccc(Cl)cc1)c1ccc2c(c1)c(-c1cccc(Cl)c1)cc(=O)n2C [tipifarnib]
Outline: as §1

[6] = compound: NC(=O)Nc1cc(-c2cccc(F)c2)sc1C(=O)N[C@H]1CCCNC1
Outline: as §1

[7] = compound: NC(=O)c1cnc(N[C@@H]2CCCC[C@@H]2N)nc1Nc1cccc(-n2nccn2)c1
Outline: as §1

[8] = compound: NC1(c2ccc(-c3nc4ccn5c(=O)[nH]nc5c4cc3-c3ccccc3)cc2)CCC1
Outline: as §1

Target	log2 fold change (lapatinib)	log2 fold change (pictilisib)	log2 fold change (crizotinib)	log2 fold change [1]	log2 fold change (duvelisib)	log2 fold change (gandotinib)	log2 fold change (tozasertib)	log2 fold change (doramapimod)	log2 fold change (bafetinib)	log2 fold change [2]	log2 fold change (nilotinib)	log2 fold change [3]	log2 fold change (dasatinib)	log2 fold change [4]	log2 fold change [5]	log2 fold change (quisinostat)	log2 fold change (tipifarnib)	log2 fold change [6]	log2 fold change [7]	log2 fold change [8]
DNTTIP2 (UniProt Q5QJE6)	inactive: 0.003	inactive: -0.066	inactive: -0.061	inactive: -0.029	inactive: 0.071	inactive: 0.057	inactive: 0.052	inactive: 0.18	inactive: -0.053	inactive: 0.116	inactive: -0.116	inactive: -0.176	inactive: -0.024	inactive: -0.047	inactive: -0.121	inactive: -0.046	inactive: -0.057	inactive: 0.038	inactive: -0.01	inactive: 0.009
DLGAP4 (UniProt Q9Y2H0)	inactive: -0.002	inactive: -0.012	inactive: -0.022	inactive: -0.051	inactive: 0.015	inactive: 0.018	inactive: 0.034	inactive: -0.009	inactive: 0.029	inactive: -0.041	inactive: -0.014	inactive: 0.01	inactive: -0.009	inactive: 0.02	inactive: 0.048	inactive: -0.037	inactive: 0.05	inactive: 0.01	inactive: 0.002	inactive: -0.059
DHX8 (UniProt Q14562)	inactive: 0.009	inactive: -0.03	inactive: 0.023	inactive: -0.079	inactive: 0.009	inactive: 0.019	inactive: 0.058	inactive: 0.063	inactive: 0.006	inactive: 0.085	inactive: -0.038	inactive: -0.086	inactive: 0.011	inactive: -0.045	inactive: 0.028	inactive: 0.035	inactive: 0.001	inactive: -0.095	inactive: -0.001	inactive: 0.031
DNM1L isoform 6 (UniProt O00429)	inactive: -0.002	inactive: -0.015	inactive: -0.034	inactive: 0.045	inactive: 0.014	inactive: -0.097	inactive: 0.008	inactive: 0.02	inactive: -0.006	inactive: -0.01	inactive: 0	inactive: -0.001	inactive: -0.031	inactive: -0.006	inactive: 0.033	inactive: 0.019	inactive: -0.004	inactive: -0.002	inactive: 0.021	inactive: 0.009
DLAT (UniProt P10515)	inactive: -0.053	inactive: 0.001	inactive: -0.077	inactive: -0.094	inactive: 0.05	inactive: 0.027	inactive: -0.015	inactive: 0.103	inactive: -0.14	inactive: 0.033	inactive: 0.019	inactive: -0.042	inactive: -0.101	inactive: -0.057	inactive: 0.006	inactive: -0.135	inactive: -0.002	inactive: 0.02	inactive: 0.017	inactive: -0.025
DHRS1 (UniProt Q96LJ7)	inactive: -0.138	inactive: -0.089	inactive: -0.014	inactive: -0.037	active: 0.406	inactive: 0.099	inactive: -0.281	inactive: -0.015	inactive: 0.056	inactive: 0.092	inactive: -0.009	inactive: -0.043	inactive: 0.063	inactive: -0.064	inactive: -0.042	inactive: 0.012	inactive: 0.055	inactive: -0.001	inactive: 0.033	inactive: -0.026
DOCK8 (UniProt Q8NF50)	inactive: -0.032	inactive: -0.011	inactive: -0.03	inactive: -0.002	inactive: 0.003	inactive: -0.097	inactive: 0.042	inactive: 0.029	inactive: -0.062	inactive: 0.02	inactive: -0.007	inactive: -0.023	inactive: -0.045	inactive: 0.04	inactive: 0.058	inactive: -0.053	inactive: -0.033	inactive: 0.032	inactive: 0.016	inactive: 0
DNAH8 (UniProt Q96JB1)	inactive: -0.134	inactive: -0.01	inactive: -0.098	inactive: -0.146	inactive: 0.055	inactive: 0.008	inactive: -0.05	inactive: -0.091	inactive: -0.185	inactive: 0.047	inactive: 0.102	inactive: -0.144	inactive: -0.084	inactive: -0.023	inactive: 0.065	inactive: -0.42	inactive: -0.005	inactive: 0.041	inactive: 0.03	inactive: -0.028
DGCR8 (UniProt Q8WYQ5)	inactive: -0.023	inactive: -0.048	inactive: 0.039	inactive: -0.056	inactive: -0.014	inactive: -0.032	inactive: -0.012	inactive: 0.04	inactive: -0.009	inactive: 0.044	inactive: -0.01	inactive: -0.002	inactive: -0.061	inactive: -0.029	inactive: -0.02	inactive: -0.007	inactive: 0.03	inactive: -0.032	inactive: -0.048	inactive: 0.003
DGKZ (UniProt Q13574)	inactive: -0.004	inactive: 0.035	inactive: -0.053	inactive: 0	inactive: -0.021	inactive: 0.056	inactive: -0.064	inactive: 0	inactive: -0.112	inactive: -0.015	inactive: 0.021	inactive: -0.007	inactive: -0.049	inactive: -0.003	inactive: -0.058	inactive: 0.019	inactive: 0.061	inactive: 0.005	inactive: 0.018	inactive: -0.057
DHX36 (UniProt Q9H2U1)	inactive: -0.026	inactive: -0.036	inactive: 0.002	inactive: 0.008	inactive: 0.015	inactive: 0	inactive: -0.021	inactive: 0	inactive: -0.001	inactive: 0.028	inactive: 0.013	inactive: 0.016	inactive: 0.022	inactive: -0.013	inactive: -0.003	inactive: 0.032	inactive: 0.021	inactive: 0.017	inactive: -0.034	inactive: 0
DHCR24 (UniProt Q15392)	inactive: 0.034	inactive: 0.016	inactive: -0.129	inactive: -0.046	inactive: 0.076	inactive: -0.059	inactive: 0.032	inactive: -0.06	inactive: 0.069	inactive: 0.033	inactive: -0.065	inactive: 0.026	inactive: 0.08	inactive: -0.001	inactive: -0.275	inactive: 0.103	inactive: -0.07	inactive: 0.095	inactive: -0.002	inactive: -0.037
DHX16 (UniProt O60231)	inactive: 0.021	inactive: -0.031	inactive: -0.026	inactive: 0.023	inactive: 0.002	inactive: -0.054	inactive: 0.006	inactive: 0.013	inactive: -0.016	inactive: -0.081	inactive: -0.007	inactive: -0.019	inactive: -0.011	inactive: 0.003	inactive: 0.012	inactive: -0.045	inactive: -0.02	inactive: -0.003	inactive: -0.011	inactive: -0.029
DHX30 isoform 2 (UniProt Q7L2E3)	inactive: -0.015	inactive: 0.015	inactive: -0.036	inactive: 0.025	inactive: -0.034	inactive: -0.074	inactive: 0.002	inactive: 0.019	inactive: -0.017	inactive: 0.028	inactive: -0.006	inactive: 0.005	inactive: -0.008	inactive: 0.003	inactive: 0.035	inactive: -0.021	inactive: 0	inactive: 0.056	inactive: 0.007	inactive: -0.005
DHX35 (UniProt Q9H5Z1)	inactive: 0.061	inactive: -0.002	inactive: -0.014	inactive: 0.005	inactive: -0.034	inactive: -0.054	inactive: 0.058	inactive: -0.295	inactive: -0.079	inactive: -0.14	inactive: 0.08	inactive: -0.029	inactive: -0.14	inactive: -0.005	inactive: 0.003	inactive: -0.338	inactive: 0.04	inactive: 0.217	inactive: 0.169	inactive: 0.149
DIMT1 (UniProt Q9UNQ2)	inactive: -0.006	inactive: -0.018	inactive: 0.046	inactive: 0.027	inactive: -0.002	inactive: -0.046	inactive: 0.025	inactive: -0.032	inactive: 0.006	inactive: -0.023	inactive: -0.04	inactive: 0.034	inactive: -0.018	inactive: -0.017	inactive: 0.017	inactive: 0.105	inactive: 0.024	inactive: 0.008	inactive: -0.003	inactive: 0.015

An excerpt from above, showing only log2 fold change (quisinostat) and log2 fold change (tozasertib).
Target | log2 fold change (quisinostat) | log2 fold change (tozasertib)
DHX36 (UniProt Q9H2U1) | inactive: 0.032 | inactive: -0.021
DHX30 isoform 2 (UniProt Q7L2E3) | inactive: -0.021 | inactive: 0.002
